Some results were stated once for a whole list of compounds, not compound by compound.
Test system: Human peripheral blood total T cells stimulated with anti-CD3 antibody
Test: Cytokine and chemokine production by anti-CD3-stimulated T cells (cytometric bead array, Luminex 100)
Format: cell-based
Conditions: analytes other than TNF-α, IL-13 and IP-10
Description: Cytokine and chemokine protein levels were analyzed by cytometric bead array on a Luminex 100. CAIA model: […] Compound A and ETN were administered once daily on days 3-13. […] Both hind paws (left and right) of each animal were examined for signs of arthritogenic responses in blinded fashion. Arthritic reactions were scored and recorded according to a 0-4 scale in ascending order of severity. Hind paw thickness was measured in mm using a Mitutoyo Electronic Digital Caliper.

With etanercept as the substance, how does the “IC50s for all other analytes” value read?
Its value is > 1600 ng/mL.

— patent US9272035B2, “Methods and compositions using PDE4 inhibitors for the treatment and management of autoimmune and inflammatory diseases” (Celgene Corporation, priority 2011, dated 2016)
